PubChem BioAssay AID1159584, Peter MacCallum Cancer Centre | 2016
Shown is one part, drawn at random, of about 18,000 reagents tested. Further read-outs or replicates are left out here. Not given: the amount of reagent, the time to read-out.

Purpose: 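Genes that CDH1-null MCF10A cells selectively depend on to survive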 (primary screen)
System: human MCF10A breast epithelial cells, parental and CDH1-null
Reagent: siRNA against human genes
Detection: 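Cell viability by CellTiter-Glo ATP luminescence, each line scaled to the mean of mock wells across plates, then CDH1-null over parental ratio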
Reading the numbers: CDH1-null / parental viability ratio: higher = CDH1-null cells survive relatively better than parental

SOX13 showed CDH1-null / parental viability ratio 0.81.
Knock-down of SLC7A11 came out at: CDH1-null / parental viability ratio 0.91.
Against GCKR, the values are CDH1-null / parental viability ratio 1.07.
For BPY2C, the entry reads CDH1-null / parental viability ratio 1.1.
Knock-down of SRR gave: CDH1-null / parental viability ratio 0.89.
With knock-down of OR2T35, the screen gave CDH1-null / parental viability ratio 1.04.
AFMID gave CDH1-null / parental viability ratio 1.05.
Knock-down of E2F7 gave: CDH1-null / parental viability ratio 1.09.
After knock-down of ATP6V1B1 the results were CDH1-null / parental viability ratio 0.85.
Knock-down of ZNF669 resulted in: CDH1-null / parental viability ratio 0.81.
With knock-down of ING3, the screen gave CDH1-null / parental viability ratio 1.02.
INTS12 scored CDH1-null / parental viability ratio 0.99.
KIF14 showed CDH1-null / parental viability ratio 0.79.
OR6T1 gave CDH1-null / parental viability ratio 0.73.
Silencing of ELMOD3 resulted in: CDH1-null / parental viability ratio 1.03.
ESS2 gave CDH1-null / parental viability ratio 1.
After knock-down of EPC2 the results were CDH1-null / parental viability ratio 0.79.
After knock-down of GAA the results were CDH1-null / parental viability ratio 1.22.
After knock-down of POFUT2 the results were CDH1-null / parental viability ratio 1.05.
FBXL8 gave CDH1-null / parental viability ratio 0.98.
Against CIMAP3 the deposit lists CDH1-null / parental viability ratio 0.95.
MCPH1 gave CDH1-null / parental viability ratio 0.95.
Against FYTTD1, the entry reads CDH1-null / parental viability ratio 0.85.
For FAM217B the deposit lists CDH1-null / parental viability ratio 0.57.
Knock-down of ARL4A gave: CDH1-null / parental viability ratio 1.07.
Against PVALB the deposit lists CDH1-null / parental viability ratio 1.29.
After knock-down of GRPEL2, the screen gave CDH1-null / parental viability ratio 0.94.
With knock-down of NOMO2 the results were CDH1-null / parental viability ratio 1.1.

Not a retest: entries from further up.
GCKR → CDH1-null / parental viability ratio = 1.07
BPY2C → CDH1-null / parental viability ratio = 1.1
SRR → CDH1-null / parental viability ratio = 0.89
OR2T35 → CDH1-null / parental viability ratio = 1.04
AFMID → CDH1-null / parental viability ratio = 1.05
E2F7 → CDH1-null / parental viability ratio = 1.09

Further results:
Knock-down of RSRC1 gave: CDH1-null / parental viability ratio 1.09.
RGMB showed CDH1-null / parental viability ratio 1.1.
Depletion of COG8 came out at: CDH1-null / parental viability ratio 1.11.
With knock-down of SLC25A4, the screen gave CDH1-null / parental viability ratio 0.94.
GK scored CDH1-null / parental viability ratio 1.
Depletion of MORC3 gave: CDH1-null / parental viability ratio 1.04.
Against TTC19 the deposit lists CDH1-null / parental viability ratio 0.94.
Silencing of OR8D2 gave: CDH1-null / parental viability ratio 1.25.
Knock-down of OR5AN1 came out at: CDH1-null / parental viability ratio 0.91.
With knock-down of ABCC8, the record shows CDH1-null / parental viability ratio 1.13.
DTWD2 showed CDH1-null / parental viability ratio 1.02.
For SULT1E1, the values are CDH1-null / parental viability ratio 1.08.
Against SP140L, the entry reads CDH1-null / parental viability ratio 0.78.
ZC3H18-DT showed CDH1-null / parental viability ratio 1.42.
CNIH1 gave CDH1-null / parental viability ratio 1.04.
Silencing of HIPK1 came out at: CDH1-null / parental viability ratio 0.97.
Depletion of DYNC1I1 resulted in: CDH1-null / parental viability ratio 0.88.
